# Results deposited as PubChem BioAssay AID504764 (Drosophila RNAi Screening Center, 2011).
# Purpose: 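Genes whose knock-down alters Notch-dependent transcription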 (primary screen)
# Cells: Drosophila Kc167 cells
# Reagent: long dsRNA against Drosophila genes
# Timing: about 5 days (4 days dsRNA, then 24 h after transfection)
# Treatment: transfection of constitutively active membrane-tethered Notch lacking the extracellular domain, read 24 h later
# Detection: 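Firefly luciferase from an E(spl)m3 reporter with active Notch, plus control-promoter and uninduced reporter wells for normalisation; unnormalised counts, duplicate wells a and b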
# Reading the numbers: induced reporter light, run 1, well a and induced reporter light, run 1, well b: higher = more light from the Notch target reporter with active Notch; control promoter light, run 1, well a and control promoter light, run 1, well b: higher = more light from the viral control promoter (cell number, transfection, viability); uninduced reporter light, run 1, well a: higher = more light from the Notch target reporter without active Notch
# Call rule: 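Wells with low control signal or poorly matching duplicates excluded; duplicates averaged; per source plate, z beyond ±2 for induced/control log2 ratio or beyond ±1.8 for induced/uninduced marks a hit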
# Meaning of the calls: active = modifier hit (raised or lowered Notch signal); inactive = not a hit
# The deposit covers about 22,000 reagents; shown is a random part of those with a known target gene and a result. In the full data, 403 (1.9%) are marked active. 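Unnormalised raw counts per well; ratio z-scores behind the hit calls and whether each hit raises or lowers signal are not deposited.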 The numbers tell different reagents against one gene apart. Names joined by + are all predicted targets of the reagent. Not given: the amount of reagent.
target,reagent no.,"induced reporter light, run 1, well a","induced reporter light, run 1, well b","control promoter light, run 1, well a","control promoter light, run 1, well b","uninduced reporter light, run 1, well a",activity call
Hipk,1,53520,55990,50145,54935,12675,inactive
Hipk,2,29575,24410,50485,49900,6625,inactive
CG5554,1,1.45e5,1.33e5,1.47e5,1.38e5,10520,inactive
mam,1,11440,13865,13210,13860,5815,inactive
mam,2,8865,7025,11820,6670,2600,inactive
Reph,1,84570,79590,67525,63680,4990,active
CG12010,1,1.14e5,1.35e5,1.83e5,1.91e5,5250,inactive
CG33494,1,2.46e5,2.31e5,2.13e5,2.28e5,19605,inactive
mys,1,1.39e5,1.18e5,2.69e5,2.30e5,9530,inactive
wit,1,1.81e5,1.09e5,1.03e5,41225,10925,inactive
mRpL13,1,55945,33875,41215,35285,3660,inactive
S-Lap7,1,95720,77605,1.02e5,1.09e5,7560,inactive
salm,1,97130,1.51e5,66745,1.03e5,15355,inactive
CG12121,1,1.39e5,1.27e5,2.94e5,2.65e5,8205,inactive
Stlk,1,,,,,,inactive
Drsl1,1,,,,,,inactive
rogdi,1,89755,1.00e5,57260,70845,9165,inactive
mRRF1,1,83985,1.29e5,85130,32280,7245,inactive
CG2938,1,1.54e5,1.56e5,2.00e5,2.37e5,12345,inactive
Prosap,1,71535,74060,81575,97160,6465,inactive
Prosap,2,1.19e5,1.25e5,1.25e5,1.18e5,9810,inactive
daw,1,1.94e5,2.19e5,2.13e5,2.33e5,17295,inactive
RpL24-like,1,76385,77820,64335,42470,5535,inactive
slgA,1,1.42e5,1.57e5,1.27e5,62000,9090,inactive
Jon65Aiv,1,1.35e5,1.53e5,2.04e5,1.77e5,7165,inactive
egr,1,1.74e5,1.90e5,2.23e5,1.82e5,16850,inactive
Cep135,1,1.51e5,1.75e5,2.16e5,1.90e5,15480,inactive
Cep135,2,1.37e5,1.60e5,83420,77370,8542,inactive
Spf30,1,1.73e5,1.47e5,1.16e5,1.13e5,11505,inactive
CG8675,1,1.11e5,88425,91035,44210,7810,inactive
nero,1,1.41e5,1.52e5,2.04e5,2.19e5,10440,inactive
CG15916,1,69005,74160,80250,69670,10845,inactive
Nazo,1,94295,98275,1.16e5,79970,7570,inactive
CG33093,1,1.90e5,1.69e5,2.92e5,2.80e5,13695,inactive

Copied from the list.
slgA, uninduced reporter light, run 1, well a: 9090
Prosap #2, uninduced reporter light, run 1, well a: 9810
Result of Drsl1 in “activity call”: inactive
Reph, control promoter light, run 1, well a: 67525
Under “control promoter light, run 1, well b”, CG5554 reads 1.38e5
Under “control promoter light, run 1, well b”, CG15916 reads 69670

Further reagents follow:
target,reagent no.,"induced reporter light, run 1, well a","induced reporter light, run 1, well b","control promoter light, run 1, well a","control promoter light, run 1, well b","uninduced reporter light, run 1, well a",activity call
CG5687,1,45760,35100,55830,51760,3915,inactive
l(3)neo38,1,61235,79110,63195,50935,3725,inactive
l(3)neo38,2,67840,64295,54150,43065,2465,inactive
RpS29 + snoRNA:Psi18S-1275,1,1.68e5,1.45e5,1.66e5,1.30e5,14090,inactive
CG31778,1,87590,71565,68685,65430,5620,inactive
CG6418,1,1.84e5,1.39e5,1.51e5,65995,15832,inactive
CR42785,1,51125,71100,1.09e5,1.19e5,3555,inactive
Dnaaf5,1,75770,92870,1.02e5,1.22e5,7745,inactive
CG5758,1,39165,46275,31475,38455,3705,inactive
CG5758,2,1.25e5,1.45e5,1.68e5,1.88e5,12430,inactive
ERR,1,1.02e5,87490,79205,46200,12342,inactive
CG34406 (retired record),1,1.82e5,1.90e5,1.40e5,1.72e5,15445,inactive
CG34406 (retired record),2,1.65e5,1.55e5,2.04e5,2.05e5,11555,inactive
Act42A,1,2.25e5,2.20e5,2.14e5,2.16e5,16325,inactive
SCOT,1,81900,1.04e5,2.01e5,1.84e5,7515,inactive
CG31636,1,68290,54680,70125,57870,3650,inactive
wa-cup,1,87740,1.15e5,1.10e5,1.01e5,5870,inactive
cutlet,1,1.71e5,1.80e5,2.00e5,2.20e5,11828,inactive
CG46339,1,1.57e5,1.77e5,2.02e5,2.40e5,14755,inactive
GstE2,1,41265,44260,47940,55345,4700,inactive
Slc25A46b,1,1.02e5,1.21e5,1.25e5,1.40e5,8080,inactive
Naa20A,1,1.34e5,1.29e5,1.05e5,84940,10495,inactive
CG10903,1,44780,38710,30125,26170,3045,inactive
CG10185,1,2.46e5,2.56e5,2.82e5,2.96e5,20000,inactive
CG9550,1,1.60e5,1.77e5,1.53e5,1.69e5,10745,inactive
SNF4Agamma,1,52615,48610,75645,57640,8760,inactive
SNF4Agamma,2,61710,73805,77430,73045,9185,inactive
SNF4Agamma,3,2.22e5,1.83e5,1.80e5,1.91e5,13715,inactive
SNF4Agamma,4,1.55e5,2.04e5,1.94e5,1.88e5,14745,inactive
glob2,1,67950,92405,76735,70565,5245,inactive
